According to PMC8113555:

Biological target: TEBP-2::GFP (Telomere-Binding Protein-2, T12E12.3) (C. elegans) (UniProt Q22429)
Assay: affinity purification with mass spectrometry; IP of TEBP-2::GFP with GFP-trap magnetic agarose beads from embryo and young adult extracts, quadruplicates, quantitative MS; wash buffer 10 mM Tris/HCl pH 7.5, 150 mM NaCl, 0.5 mM EDTA; 4 °C; also with Sm nuclease

binding: binds
B1: POT-1 (protein, UniProt P42001 1-400)
chain: MQYTYQHIQDLVPGPTPQNFYGKIIFIKKKINQIVVLIKDETQSIYLRVIPKEDQELEFQLRQVVRVHRCKIQSILNSKEGIAQIGLFGCHLIAWSQSGKVDNPVIISSRSWTKSDEDSERLQTLRKLGKSRRKSGRKTSVDTMANKLIERREAMFADTFIKSLFNKIALSRKEHLSRNARELFYHRPGDIVETQNLLEIDDSWFNDENSEQFVQYVLNCTTCHVEYNHVEYAQNNIPTNCRFCQEAMESFHAAFRIRISIETYGVFLTIPLELIKTELDICEDWDSESNIVEEEEKVTRFKKNIQEKVRDASIVHIKGISSLLLIIMLNINSISLVNNITENKRILLQKSNVPSSLQLKILITPFVIVVVRFFGITWIYSGSSCIEEVLNLIDNCSRRR

These are yes or no findings as the source states them, for the method shown. In cells and extracts the contact can be indirect. A yes stands for co-enrichment or nearness to the bait. Other partners may have been found.
